The other results are listed elsewhere or left out.
Experiments:
Test in all cases: log2 fold change, soluble protein after heating vs DMSO (PISA); higher = thermal stabilisation; K562 lysate, 10 uM; active = over 0.2 and 3.5 SD of the protein, either way, in both replicates (recomputed)
[1] = compound: C1=CC=C(C=C1)[C@H](COC2=CC3=C(C=C2)NC(=O)N3)NC(=O)C4=CC=CN(C4=O)CC5=CC(=C(C=C5)F)F
Summary of the method: (§1)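 Dounce homogenisation of K562 pellets in PBS pH 7.4 with 1 mM MgCl2 produced a crude extract, used at 1 mg/mL protein. Exposure to 10 μM compound lasted 30 min, and aliquots were then heated for 3 min across 48°C-58°C, pooled and brought to 0.5% NP-40 at 4°C. The supernatant after 21,000xg for 90 min was quantified by TMTpro 16plex LC-MS/MS with channel sums equalised. Duplicate values are given as log-two fold change in thermal stability relative to solvent controls.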

The chains behind the UniProt entries cited, without tags or fusion partners. Where a name states a change or a piece, a line headed by the entry shows the natural chain unless it says otherwise.
UniProt O15479: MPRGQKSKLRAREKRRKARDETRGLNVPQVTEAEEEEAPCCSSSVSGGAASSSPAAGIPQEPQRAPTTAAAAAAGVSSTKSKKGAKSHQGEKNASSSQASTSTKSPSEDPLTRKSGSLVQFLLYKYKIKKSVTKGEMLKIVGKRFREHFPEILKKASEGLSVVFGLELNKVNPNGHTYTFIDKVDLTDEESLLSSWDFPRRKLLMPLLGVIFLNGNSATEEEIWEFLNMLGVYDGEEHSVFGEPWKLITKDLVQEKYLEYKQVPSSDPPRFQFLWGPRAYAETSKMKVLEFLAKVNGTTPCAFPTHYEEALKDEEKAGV
UniProt Q9NU23: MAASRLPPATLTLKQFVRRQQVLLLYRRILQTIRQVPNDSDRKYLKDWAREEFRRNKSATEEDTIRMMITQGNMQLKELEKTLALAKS
UniProt Q9NTJ4: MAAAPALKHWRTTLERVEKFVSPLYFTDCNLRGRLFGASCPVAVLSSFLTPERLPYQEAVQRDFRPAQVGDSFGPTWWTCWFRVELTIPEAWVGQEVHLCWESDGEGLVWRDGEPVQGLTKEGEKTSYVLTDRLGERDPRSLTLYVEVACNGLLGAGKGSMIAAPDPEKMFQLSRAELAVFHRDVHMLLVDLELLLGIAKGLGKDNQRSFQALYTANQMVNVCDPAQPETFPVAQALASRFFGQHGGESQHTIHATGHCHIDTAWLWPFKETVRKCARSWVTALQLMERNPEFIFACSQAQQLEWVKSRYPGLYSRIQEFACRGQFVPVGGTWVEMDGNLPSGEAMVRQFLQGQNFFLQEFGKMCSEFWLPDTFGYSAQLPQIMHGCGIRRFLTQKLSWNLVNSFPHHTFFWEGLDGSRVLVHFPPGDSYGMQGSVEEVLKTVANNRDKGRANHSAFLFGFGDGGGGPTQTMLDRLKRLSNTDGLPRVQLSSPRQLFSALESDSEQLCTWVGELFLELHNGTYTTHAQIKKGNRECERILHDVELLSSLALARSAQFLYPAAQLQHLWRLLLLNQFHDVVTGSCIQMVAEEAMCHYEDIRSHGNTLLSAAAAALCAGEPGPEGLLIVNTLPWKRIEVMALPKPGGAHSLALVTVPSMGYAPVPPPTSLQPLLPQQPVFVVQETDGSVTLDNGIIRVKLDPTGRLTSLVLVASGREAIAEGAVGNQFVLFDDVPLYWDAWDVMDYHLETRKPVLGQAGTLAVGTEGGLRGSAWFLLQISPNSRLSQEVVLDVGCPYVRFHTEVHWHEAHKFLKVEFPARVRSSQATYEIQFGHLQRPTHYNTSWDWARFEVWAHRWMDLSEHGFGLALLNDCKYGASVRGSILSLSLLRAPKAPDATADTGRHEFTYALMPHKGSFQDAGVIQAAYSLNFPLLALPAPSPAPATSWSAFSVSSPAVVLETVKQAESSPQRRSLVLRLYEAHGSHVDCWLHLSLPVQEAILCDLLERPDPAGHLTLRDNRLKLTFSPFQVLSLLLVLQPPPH
UniProt P43355: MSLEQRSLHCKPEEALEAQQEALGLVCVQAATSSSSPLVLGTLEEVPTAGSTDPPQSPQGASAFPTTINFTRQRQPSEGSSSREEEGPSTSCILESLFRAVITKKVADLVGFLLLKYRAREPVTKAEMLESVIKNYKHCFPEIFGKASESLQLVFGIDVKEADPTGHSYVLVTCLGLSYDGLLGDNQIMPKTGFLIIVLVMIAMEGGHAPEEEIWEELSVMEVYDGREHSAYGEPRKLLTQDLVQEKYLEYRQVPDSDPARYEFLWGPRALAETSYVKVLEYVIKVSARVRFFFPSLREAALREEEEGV
UniProt Q8WZA0: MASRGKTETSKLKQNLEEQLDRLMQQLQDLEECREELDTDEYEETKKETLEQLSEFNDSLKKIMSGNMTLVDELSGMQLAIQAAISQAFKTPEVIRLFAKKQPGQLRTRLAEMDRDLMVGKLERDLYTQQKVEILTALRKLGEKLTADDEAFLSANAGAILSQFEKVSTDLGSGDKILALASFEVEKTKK
UniProt Q9Y250: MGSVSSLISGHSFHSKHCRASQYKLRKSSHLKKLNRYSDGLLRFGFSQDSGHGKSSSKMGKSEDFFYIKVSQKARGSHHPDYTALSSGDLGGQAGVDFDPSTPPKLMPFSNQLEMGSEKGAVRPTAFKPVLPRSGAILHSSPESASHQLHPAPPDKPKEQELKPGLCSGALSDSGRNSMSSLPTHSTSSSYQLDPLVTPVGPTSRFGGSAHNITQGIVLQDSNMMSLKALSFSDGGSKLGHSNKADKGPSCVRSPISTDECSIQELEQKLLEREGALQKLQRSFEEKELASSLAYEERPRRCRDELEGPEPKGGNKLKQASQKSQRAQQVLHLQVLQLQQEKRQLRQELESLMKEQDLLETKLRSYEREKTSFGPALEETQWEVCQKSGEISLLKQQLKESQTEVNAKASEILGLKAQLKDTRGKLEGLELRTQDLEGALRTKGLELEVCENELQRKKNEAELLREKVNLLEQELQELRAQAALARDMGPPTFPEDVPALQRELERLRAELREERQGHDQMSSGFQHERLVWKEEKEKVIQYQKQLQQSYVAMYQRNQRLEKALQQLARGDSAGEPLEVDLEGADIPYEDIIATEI
UniProt Q9Y4K4: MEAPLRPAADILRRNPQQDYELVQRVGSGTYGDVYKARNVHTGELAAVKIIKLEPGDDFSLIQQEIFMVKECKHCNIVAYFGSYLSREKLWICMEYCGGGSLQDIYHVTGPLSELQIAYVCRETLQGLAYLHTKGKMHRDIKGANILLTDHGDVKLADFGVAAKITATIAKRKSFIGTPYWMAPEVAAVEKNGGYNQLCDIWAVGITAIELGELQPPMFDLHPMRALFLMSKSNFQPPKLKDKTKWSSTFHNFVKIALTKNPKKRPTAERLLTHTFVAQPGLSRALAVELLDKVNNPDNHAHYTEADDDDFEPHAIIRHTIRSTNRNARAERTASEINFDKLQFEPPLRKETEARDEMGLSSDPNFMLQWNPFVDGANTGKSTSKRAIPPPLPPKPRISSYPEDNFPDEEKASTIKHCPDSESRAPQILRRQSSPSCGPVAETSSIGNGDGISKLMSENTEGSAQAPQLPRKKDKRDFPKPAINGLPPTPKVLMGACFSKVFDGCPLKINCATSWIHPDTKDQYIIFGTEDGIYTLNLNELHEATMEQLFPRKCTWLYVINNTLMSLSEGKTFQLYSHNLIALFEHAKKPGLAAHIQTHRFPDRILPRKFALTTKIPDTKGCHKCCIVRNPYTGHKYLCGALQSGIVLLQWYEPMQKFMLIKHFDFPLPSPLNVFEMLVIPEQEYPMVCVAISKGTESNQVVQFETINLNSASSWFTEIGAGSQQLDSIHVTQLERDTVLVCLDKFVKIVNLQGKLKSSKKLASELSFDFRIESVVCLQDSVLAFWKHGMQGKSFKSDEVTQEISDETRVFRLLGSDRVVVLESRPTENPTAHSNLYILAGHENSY
UniProt P09960: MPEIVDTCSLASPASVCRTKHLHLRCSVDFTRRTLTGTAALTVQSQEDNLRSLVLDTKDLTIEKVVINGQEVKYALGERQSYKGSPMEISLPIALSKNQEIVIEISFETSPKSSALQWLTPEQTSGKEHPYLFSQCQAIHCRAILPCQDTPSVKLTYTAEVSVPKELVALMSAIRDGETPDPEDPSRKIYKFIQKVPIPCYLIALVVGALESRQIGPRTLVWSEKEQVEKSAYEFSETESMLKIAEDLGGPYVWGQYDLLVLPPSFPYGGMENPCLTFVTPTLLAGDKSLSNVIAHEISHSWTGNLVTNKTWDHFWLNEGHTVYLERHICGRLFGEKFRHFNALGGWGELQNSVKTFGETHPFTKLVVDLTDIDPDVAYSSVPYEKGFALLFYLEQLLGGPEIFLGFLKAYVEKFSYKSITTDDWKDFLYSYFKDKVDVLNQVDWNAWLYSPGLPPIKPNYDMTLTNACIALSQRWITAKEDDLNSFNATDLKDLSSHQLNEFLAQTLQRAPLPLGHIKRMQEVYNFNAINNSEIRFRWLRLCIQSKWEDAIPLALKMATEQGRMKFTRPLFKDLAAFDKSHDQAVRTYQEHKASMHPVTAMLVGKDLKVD
UniProt Q16706: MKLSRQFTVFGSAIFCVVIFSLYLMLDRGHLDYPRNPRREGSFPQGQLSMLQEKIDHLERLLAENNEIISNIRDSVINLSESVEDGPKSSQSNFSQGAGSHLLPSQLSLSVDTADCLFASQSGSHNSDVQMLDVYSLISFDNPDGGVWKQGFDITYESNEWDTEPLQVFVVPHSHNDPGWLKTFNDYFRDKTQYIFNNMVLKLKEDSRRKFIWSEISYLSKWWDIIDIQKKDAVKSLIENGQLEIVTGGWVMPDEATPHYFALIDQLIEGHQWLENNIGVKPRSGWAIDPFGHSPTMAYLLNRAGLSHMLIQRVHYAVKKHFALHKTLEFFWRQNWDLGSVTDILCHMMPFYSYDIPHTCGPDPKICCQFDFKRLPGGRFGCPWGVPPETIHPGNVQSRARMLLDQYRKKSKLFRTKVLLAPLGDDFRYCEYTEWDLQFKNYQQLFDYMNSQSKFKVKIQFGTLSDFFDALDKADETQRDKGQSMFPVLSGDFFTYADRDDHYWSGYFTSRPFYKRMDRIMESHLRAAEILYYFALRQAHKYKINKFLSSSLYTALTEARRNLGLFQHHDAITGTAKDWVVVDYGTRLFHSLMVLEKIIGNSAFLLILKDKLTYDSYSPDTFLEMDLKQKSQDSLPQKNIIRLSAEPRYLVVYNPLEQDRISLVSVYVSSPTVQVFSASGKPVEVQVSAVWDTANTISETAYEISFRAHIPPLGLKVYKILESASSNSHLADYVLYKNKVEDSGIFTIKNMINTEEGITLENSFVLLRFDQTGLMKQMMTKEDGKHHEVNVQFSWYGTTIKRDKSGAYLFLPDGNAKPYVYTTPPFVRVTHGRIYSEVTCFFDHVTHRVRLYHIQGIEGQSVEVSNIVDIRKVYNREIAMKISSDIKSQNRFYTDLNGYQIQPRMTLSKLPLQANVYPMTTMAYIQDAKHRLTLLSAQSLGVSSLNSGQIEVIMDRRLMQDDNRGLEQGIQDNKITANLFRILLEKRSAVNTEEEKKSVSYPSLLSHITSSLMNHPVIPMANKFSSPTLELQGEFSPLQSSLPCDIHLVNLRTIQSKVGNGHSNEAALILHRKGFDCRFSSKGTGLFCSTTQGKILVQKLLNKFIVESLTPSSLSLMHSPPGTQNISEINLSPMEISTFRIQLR
UniProt O95819: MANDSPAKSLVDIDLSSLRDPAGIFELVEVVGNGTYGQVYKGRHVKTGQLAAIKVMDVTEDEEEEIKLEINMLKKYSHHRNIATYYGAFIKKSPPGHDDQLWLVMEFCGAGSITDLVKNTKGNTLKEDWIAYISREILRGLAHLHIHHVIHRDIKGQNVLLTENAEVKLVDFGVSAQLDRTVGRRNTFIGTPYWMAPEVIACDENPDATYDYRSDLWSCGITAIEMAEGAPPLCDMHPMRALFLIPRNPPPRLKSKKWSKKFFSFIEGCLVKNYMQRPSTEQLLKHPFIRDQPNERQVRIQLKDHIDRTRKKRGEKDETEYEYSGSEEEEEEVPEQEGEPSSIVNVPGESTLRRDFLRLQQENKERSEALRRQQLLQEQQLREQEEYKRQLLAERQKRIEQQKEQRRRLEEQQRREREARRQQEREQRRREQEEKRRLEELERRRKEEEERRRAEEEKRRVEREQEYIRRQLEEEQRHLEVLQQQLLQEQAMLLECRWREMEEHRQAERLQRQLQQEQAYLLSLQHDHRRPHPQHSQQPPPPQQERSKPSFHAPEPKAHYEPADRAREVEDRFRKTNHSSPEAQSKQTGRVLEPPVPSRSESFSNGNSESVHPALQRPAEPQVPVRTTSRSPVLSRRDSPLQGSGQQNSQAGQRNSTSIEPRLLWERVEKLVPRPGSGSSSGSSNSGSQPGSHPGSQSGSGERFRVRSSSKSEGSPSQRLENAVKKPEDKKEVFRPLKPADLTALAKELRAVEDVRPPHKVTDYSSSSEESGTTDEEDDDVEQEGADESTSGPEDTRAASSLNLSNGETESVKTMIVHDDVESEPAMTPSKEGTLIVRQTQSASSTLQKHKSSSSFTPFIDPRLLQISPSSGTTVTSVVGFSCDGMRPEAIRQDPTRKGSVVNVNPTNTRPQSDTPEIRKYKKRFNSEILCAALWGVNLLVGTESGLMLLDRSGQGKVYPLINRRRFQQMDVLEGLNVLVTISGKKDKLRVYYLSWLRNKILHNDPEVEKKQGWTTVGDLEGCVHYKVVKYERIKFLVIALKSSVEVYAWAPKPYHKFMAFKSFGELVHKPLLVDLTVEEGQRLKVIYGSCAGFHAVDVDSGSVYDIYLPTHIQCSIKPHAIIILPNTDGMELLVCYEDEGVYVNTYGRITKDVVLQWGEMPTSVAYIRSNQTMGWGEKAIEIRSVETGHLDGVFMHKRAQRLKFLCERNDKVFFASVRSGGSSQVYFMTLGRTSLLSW

[2] = compound: CC1=C(SC2=C1C(=N[C@H](C3=NN=C(N32)C)CC(=O)N)C4=CC=C(C=C4)Cl)C
Summary of the method: as §1

[3] = compound: CC1=C2C(=CC=C1)N=C(N(C2=O)C3=CC=CC=C3C)CN4C=NC5=C(N=CN=C54)N
Summary of the method: as §1

[4] = compound: Cc1sc2c(c1C)C(c1ccc(Cl)cc1)=N[C@@H](CC(=O)OC(C)(C)C)c1nnc(C)n1-2
Summary of the method: as §1

[5] = compound: c1ccc([C@@H]2C[C@H]2NC2CCNCC2)cc1
Summary of the method: as §1

Measured: log2 fold change

MAP4K2 (UniProt Q12851)
inactive: [1] -0.088 | [2] 0.053 | [3] 0.022 | [4] -0.13 | [5] -0.087

MAGEB2 (UniProt O15479)
inactive: [1] 0.019 | [2] 0.018 | [3] -0.026 | [4] 0.02 | [5] 0.004

MAN2A2 (UniProt P49641)
inactive: [1] -0.034 | [2] -0.055 | [3] -0.003 | [4] -0.009 | [5] 0.004

LYRM2 (UniProt Q9NU23)
inactive: [1] -0.011 | [2] 0.018 | [3] -0.019 | [4] -0.032 | [5] -0.04

MAGT1 (UniProt Q9H0U3)
inactive: [1] 0.03 | [2] 0.021 | [3] 0.005 | [4] -0.013 | [5] -0.017

MAN2C1 isoform 4 (UniProt Q9NTJ4)
inactive: [1] 0.042 | [2] 0.017 | [3] -0.001 | [4] -0.125 | [5] -0.012

LTN1 isoform 3 (UniProt O94822)
inactive: [1] -0.059 | [2] 0 | [3] 0.027 | [4] -0.025 | [5] 0.04

MAGEA1 (UniProt P43355)
inactive: [1] -0.01 | [2] 0.075 | [3] -0.008 | [4] 0.002 | [5] -0.001

MAP1A (UniProt P78559)
inactive: [1] 0.018 | [2] 0.023 | [3] -0.01 | [4] -0.01 | [5] -0.007

MAGI3 isoform 1 (UniProt Q5TCQ9)
inactive: [1] 0.115 | [2] 0.025 | [3] 0.097 | [4] -0.077 | [5] 0.001

LUC7L3 (UniProt O95232)
inactive: [1] 0.009 | [2] 0.009 | [3] 0.024 | [4] -0.075 | [5] 0.016

LZIC isoform 2 (UniProt Q8WZA0)
inactive: [1] 0.03 | [2] 0.005 | [3] 0.013 | [4] 0.011 | [5] 0.02

LTF (UniProt P02788)
inactive: [1] -0.034 | [2] 0.113 | [3] 0.141 | [4] -0.183 | [5] -0.264

MAPK9 (UniProt P45984)
inactive: [1] -0.021 | [2] 0.013 | [3] 0.045 | [4] -0.071 | [5] 0.033

MAGEB1 (UniProt P43366)
inactive: [1] 0.003 | [2] 0.023 | [3] -0.011 | [4] -0.008 | [5] 0.029

Retrieved one by one from the list above, two records:
LUC7L3 (UniProt O95232)
inactive: [1] 0.009 | [2] 0.009 | [3] 0.024 | [4] -0.075 | [5] 0.016

MAPK9 (UniProt P45984)
inactive: [1] -0.021 | [2] 0.013 | [3] 0.045 | [4] -0.071 | [5] 0.033

(continued)

MARCKS (UniProt P29966)
inactive: [1] 0.044 | [2] 0.002 | [3] 0.014 | [4] 0.049 | [5] 0.042

MAPKAPK5 (UniProt Q8IW41)
inactive: [1] 0.034 | [2] 0.027 | [3] 0.014 | [4] 0.013 | [5] 0.01

LZTS1 (UniProt Q9Y250)
inactive: [1] -0.082 | [2] 0.049 | [3] 0.065 | [4] -0.628 | [5] 0.324

MAP4K5 (UniProt Q9Y4K4)
inactive: [1] 0.069 | [2] 0.063 | [3] -0.079 | [4] -0.022 | [5] -0.1

MAP7D3 (UniProt Q8IWC1)
inactive: [1] 0.056 | [2] 0.057 | [3] -0.091 | [4] 0.015 | [5] -0.05

LTA4H (UniProt P09960)
inactive: [1] 0.026 | [2] -0.024 | [3] -0.026 | [4] 0.006 | [5] 0.029

MAP2K5 (UniProt Q13163)
inactive: [1] -0.046 | [2] 0.155 | [3] -0.045 | [4] -0.407 | [5] -0.02

MAN2A1 (UniProt Q16706)
inactive: [1] 0.021 | [2] -0.046 | [3] -0.015 | [4] -0.021 | [5] 0.017

MAP4K4 isoform 3 (UniProt O95819)
inactive: [1] 0.022 | [2] 0.029 | [3] 0.015 | [4] -0.021 | [5] 0.083

From the supplement of paper PMC10849652
